Results on 2 sequences are retold here after paper PMC12147176, “Unstructured protein domains stabilize RNA binding and mediate RNA folding by AUF1”.

For some assays here: No signal at the amounts used counts as a negative. Tags and fusion partners may be left off the protein sequences shown. For some assays here: The exact form of at least one protein or probe is not confirmed.

Data set [1] concerns T1, His6-p37AUF1(78-287) (human).
T1 sequence (looked up): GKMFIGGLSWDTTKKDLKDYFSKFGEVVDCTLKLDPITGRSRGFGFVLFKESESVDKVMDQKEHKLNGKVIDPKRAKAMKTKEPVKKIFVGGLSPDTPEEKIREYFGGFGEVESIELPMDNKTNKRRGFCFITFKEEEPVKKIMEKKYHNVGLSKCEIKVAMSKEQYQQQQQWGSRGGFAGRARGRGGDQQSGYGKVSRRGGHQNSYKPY
The data set can be described thus: fluorescence anisotropy. To be noted: first site (Kd1), 50 mM KCl; Anisotropy: 10 mM Tris-HCl pH 8.0, 100 mM KCl (50 mM for Fl-ARE2), 0.5 mM EDTA, 0.1 ug/ul acetylated BSA, 1 ug/ul heparin, 2 mM DTT, 25 C, RNA 0.2-0.4 nM; recombinant protein; residues 78-287; protein details: N-term MSHHHHHHGT; label: 5' fluorescein. For orientation: Polarisation of emitted light reports the rotation of a fluorescent probe.

In data set [2] the test system is T2, His6-p37AUF1 W87F (human).
T2 sequence (looked up): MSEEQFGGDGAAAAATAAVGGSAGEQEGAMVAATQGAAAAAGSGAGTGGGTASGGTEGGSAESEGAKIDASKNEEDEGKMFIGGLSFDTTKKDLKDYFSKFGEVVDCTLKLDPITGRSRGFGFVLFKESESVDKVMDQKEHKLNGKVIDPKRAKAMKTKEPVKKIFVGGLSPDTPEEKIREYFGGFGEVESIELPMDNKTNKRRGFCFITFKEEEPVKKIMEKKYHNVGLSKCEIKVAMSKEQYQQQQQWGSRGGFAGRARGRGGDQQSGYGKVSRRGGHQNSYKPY
The data set can be described thus: Trp fluorescence and iodide quenching. The conditions noted are these: 2 uM each, KSV 6.34 M-1, not significant; recombinant protein; residues 1-287; protein details: N-term His6.

For “GUGAUUAUUUAUUAUUUAUUUAUUAUUUAUUUAUUUAG [Fl-ARE2]”, the Kd (usually the constant that tells how readily two partners part at equilibrium) in data set [1] is 104 nM.

Take “UGGCCAAUGCCCUGGCUCACAAAUACCACUG [Rβ (unlabeled)]”: in data set [2], the binding result is given as “no binding”.
